Here are results for 3 sequences from publication PMC7022936.

The exact form of at least one protein or probe is not confirmed.

Data set [1] relates to DcGliZ full-length (Dichotomomyces cejpii FS110). As to the kind of experiment: EMSA. The settings on record: EMSA: Beyotime chemiluminescent kit, 5 uL of 1 uM probe + 2 uL protein (~1 mg/mL in Methods, 100 mg/mL in legend), buffer not stated, recombinant protein, protein details: C-terminal His6 (pET22b, from primers), label: biotin (EMSA). Background: In EMSA bound probe runs differently from free probe, usually more slowly.

For data set [2], the system named is DcGliZ core (Zn2Cys6 domain) (Dichotomomyces cejpii FS110). As to the kind of experiment: EMSA. The settings on record: EMSA: Beyotime chemiluminescent kit, 5 uL of 1 uM probe + 2 uL protein (~1 mg/mL in Methods, 100 mg/mL in legend), buffer not stated; recombinant protein; protein details: C-terminal His6 (pET22b, from primers); label: biotin (EMSA).

Consider “GTTTCTATGTCTATATCGGAGGAGTGATCAACGGCGTCCGAAAATTCGGCCCGCGGCTGTCTTAGGGCTGGCCTGCAGGTGTAGGGTTCATTATGAAAGACTGGTAGTATTATGCTGCTATTTAGTCAAAAGCAGAAGAACAGTTTGTCTTTAGACCTTGAATAGATATCTGTCAAGACAAGAGCCAAGAAAGTCCCATCACCATGGCAGACATGACCGAACGACCTTCTGATCTCGTTGTGGACAGGCTGGTTCTCTTCG (double strand) [pG (gliG promoter)]”, for which the binding result in data set [1] (clearest shift) and in data set [2] was “binds” in each case.
As for “TAGTCTATCACTGAACAGTTGAATGAATTTGTTTCAAGACAGCTAAAGCTCCATTCTAGCCGTACGTACTGGTAGTTCTCCGCATAGAAACATATATCTCTCTGCTTGGTCAAAGTCAGGTATCGCCGACAAGTCTTAATATCTGCAGAGTATTCGGTGACCGAAATAGGGTCGGAATATAAGCCATATATATCACTGTTCTGGAAATCAAGAAAATATAACAGTTGAATACTCACTTTTCTAACATTCCAACAATCAGTTGAGCTCGATCACA (double strand) [pM (gliM promoter)]”, the binding result in data set [1] was “binds”.
With “TTACTTCTTGGTCTACTCCGTATTGTGAATCGAAATGAGATAGAAGTATAGTTCTACTGTACTGGTTTCTATCTGCTTAAAATAAATACAATTGTGCCTTCTATACAGATCAGTATGTAGAATGAACTGATAGACCTCCAGGAGGTTCTTCCTCCGAGCCTGCAACGCCCAAGAGGAGAACTGTGCATACGCCAGGACAGATTTTCGGCCTCCGAAAAGGACTGAGGATAGTATCTGCCATGTTTATATATAACTGAGGGAATAGACCAGGTAGATAACAGCAAAATCAACTAAACATCATC (double strand) [pN (gliN promoter)]”, the binding result in data set [1] was “binds”.
